In article doi:10.1101/2020.10.06.328815:
Results are given in words; binding and its absence hold for the method and conditions named. In cells and extracts the contact can be indirect. A result given as binding can be weak or reduced; the word gives no strength.

Molecular target: T1, truncated Drosophila P element transposase D (residues 1-140) (Drosophila) (UniProt Q7M3K2)
T1 sequence: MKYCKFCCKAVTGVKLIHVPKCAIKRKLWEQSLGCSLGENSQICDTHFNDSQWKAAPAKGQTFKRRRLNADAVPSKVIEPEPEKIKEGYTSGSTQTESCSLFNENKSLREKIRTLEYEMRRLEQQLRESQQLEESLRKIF
Test: co-IP

DmTNP deletion mutant D_Del-H (residues 1-99) (Drosophila) (domain or fragment)
binding: binds
